The target in assay [1] is T1, hTim10b^3XFLAG (human) (UniProt Q9Y5J6).
T1 sequence: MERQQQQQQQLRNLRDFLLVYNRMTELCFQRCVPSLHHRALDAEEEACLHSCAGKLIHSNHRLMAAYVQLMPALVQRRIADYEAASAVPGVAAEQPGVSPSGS
Description: cross-linking; isolated mitochondria with 0.2 mM DSP 1 hr 4°C, quenched with Tris, solubilised in 1% SDS and boiled, diluted in Triton X-100 buffer, anti-FLAG resin, cross-links cleaved in Laemmli buffer, immunoblotting.

Assay [2] addresses T1, hTim10b^3XFLAG (human). The assay can be described thus: native gel or EMSA; antibody shift: [35S]-hTim22 imported at 37°C into isolated mitochondria, solubilised in 1% digitonin, incubated with anti-FLAG or anti-SDHA antibodies 30 min on ice, BN-PAGE and autoradiography.

The values that follow come from publication PMC5016092.

Results are given in words; binding and its absence hold for the method and conditions named. For part of these data: In cells and extracts the contact can be indirect. Some results given as binding are weak or reduced against the parent protein; the word gives no strength. Tags and fused reporters may be left off the sequences shown.

B1: hTom40 (protein, UniProt O96008 1-361)
chain: MGNVLAASSPPAGPPPPPAPALVGLPPPPPSPPGFTLPPLGGSLGAGTSTSRSSERTPGAATASASGAAEDGACGCLPNPGTFEECHRKCKELFPIQMEGVKLTVNKGLSNHFQVNHTVALSTIGESNYHFGVTYVGTKQLSPTEAFPVLVGDMDNSGSLNAQVIHQLGPGLRSKMAIQTQQSKFVNWQVDGEYRGSDFTAAVTLGNPDVLVGSGILVAHYLQSITPCLALGGELVYHRRPGEEGTVMSLAGKYTLNNWLATVTLGQAGMHATYYHKASDQLQVGVEFEASTRMQDTSVSFGYQLDLPKANLLFKGSVDSNWIVGATLEKKLPPLPLTLALGAFLNHRKNKFQCGFGLTIG
For B1, the binding entry in assay [1] is “no binding”.

B2: hTim9 (protein, UniProt Q9Y5J7 1-89)
chain: MAAQIPESDQIKQFKEFLGTYNKLTETCFLDCVKDFTTREVKPEETTCSEHCLQKYLKMTQRISMRFQEYHIQQNEALAAKAGLLGQPR
As for B2, the binding entry in assay [1] was “binds”.

B3: [^35S]-hTim22 (protein, UniProt Q9Y584 1-194)
chain: MAAAAPNAGGSAPETAGSAEAPLQYSLLLQYLVGDKRQPRLLEPGSLGGIPSPAKSEEQKMIEKAMESCAFKAALACVGGFVLGGAFGVFTAGIDTNVGFDPKDPYRTPTAKEVLKDMGQRGMSYAKNFAIVGAMFSCTECLIESYRGTSDWKNSVISGCITGGAIGFRAGLKAGAIGCGGFAAFSAAIDYYLR
modifications: [35S]-methionine/cysteine label
B3: the binding entry in assay [2] is “binds”.
